# Data reported in PubChem BioAssay AID504467 (National Center for Advancing Translational Sciences (NCATS), 2011).
# The campaign covered roughly 330,000 compounds. About 7,700 (2.3%) were called active. This list was built around the results that the source calls inconclusive (neither active nor inactive); the mix of calls is not that of the screen. The call rests on the fitted dose curve; in most records, active means well fitted inhibition curve with a large enough effect; inconclusive means small, poorly fitted or top-dose-only effect, or effect the other way; inactive means flat fitted curve, though single readings scatter. Potencies beside an inconclusive call are fits to weak or partial responses and may not hold up.
# Test: qHTS screen for small molecules that inhibit ELG1-dependent DNA repair in human embryonic kidney (HEK293T) cells expressing luciferase-tagged ELG1; further: nearly all actives have a fitted effect of over 55% in size
# Conditions: HEK293T ELG1-luciferase reporter, luminescence, 16 h, DNA damage induced by 5-fluorouridine; activity change, negative = inhibition: at 46.1 µM (top of the series)
# Summary of the method: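 DMSO vehicle served as the neutral condition. Each well held 2,000 cells given 5-fluorouridine plus compound; after 16 hr at 37 °C/5% CO2, ONE-Glo was added and luciferase measured 30 min later.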
# On the % scale 0 is the no-effect control and ±100 the full control effect; potency means the concentration at half of the fitted maximal effect.
SMILES,"activity change, negative = inhibition",Potency
CCNC(=O)c1ccccc1SCc1ccccc1,inactive: 7.94%,–
COC(=O)CN(C)C(=O)c1ccc2nc(Cc3cccc(Cl)c3)oc2c1,–,"inconclusive: 14.6 µM [activator, partial curve]"
CCN(CCNC(=O)C1CCN(Cc2nc(-c3cccc(Cl)c3)oc2C)CC1)c1ccccc1,–,active: 20.6 µM
COc1ccc(NCC(=O)N/N=C/c2c(C)nn(Cc3ccccc3)c2Cl)cc1,–,"inconclusive: 29.1 µM [inhibitor, partial curve, poor fit]"
Cn1c(CCN2CCCCC2)nc2cc(NC(=O)COc3ccc(Cl)cc3)ccc21,inactive: -8.79%,–
COc1cccc(NC(=O)c2oc3ccccc3c2NC(=O)C2CC2)c1,–,active: 13 µM
O=C(CSc1ncccc1-c1nc2ccccc2[nH]1)N1CCCCC1,–,"inconclusive: 23.1 µM [activator, partial curve, poor fit]"
CC1=C(C(=O)Nc2ccccc2)C(c2ccc(N(C)C)cc2)NC(=O)N1 (stereo not drawn),–,"inconclusive: 10.3 µM [activator, partial curve, poor fit]"
CCCCCCCCNC(=O)c1cnsn1,inactive: 0.613%,–
O=C(Nc1nnc(S(=O)(=O)Nc2ccccc2)s1)C1CCCCC1,inactive: -16.3%,–
O=C(N/C=C/c1ccco1)OCc1ccccc1,–,"inconclusive: 7.3 µM [activator, partial curve]"
Cc1ccc(Oc2ccc(C=O)cn2)cc1,inactive: 14.2%,–
O=c1c2cc3c(cc2[nH]c(=S)n1CCN1CCOCC1)OCO3,inactive: -3.05%,–
COc1ccc(CNC(=O)C2CCN(S(=O)(=O)c3ccc(SC)cc3)CC2)cc1,–,"inconclusive: 5.17 µM [inhibitor, single point]"
COCCn1c(C)cc(C(=O)CN2C(=O)NC3(CCCCCC3)C2=O)c1C,–,"inconclusive: 18.3 µM [activator, partial curve]"
Cc1c(CC(=O)N[C@@H](CCCNC(N)=O)C(=O)O)c(=O)oc2cc3oc4c(c3cc12)CCCC4,inactive: 18%,–
O=C(c1cccc(S(=O)(=O)N2CCOCC2)c1)N1CCCc2ccccc21,inactive: -4.28%,–
CCCCN(C(=O)CN1C(=O)C2CCCCC2C1=O)c1c(N)n(Cc2ccccc2)c(=O)[nH]c1=O (stereo not drawn),–,"inconclusive: 5.62 µM [activator, single point]"
CSc1nnc(-c2ccccc2N=Cc2c(C)[nH]n(-c3ccc4ccccc4c3)c2=O)c(=O)[nH]1,–,"inconclusive: 10.3 µM [activator, partial curve]"
C=CCN(C(=O)C1CSC2(C)CCC(=O)N12)c1nc(-c2ccccc2)cs1 (stereo not drawn),–,"inconclusive: 4.11 µM [inhibitor, single point]"
CC1CCc2c(C(=O)Nc3ccc(OC(F)(F)F)cc3)csc2C1 (stereo not drawn),inactive: 4.49%,–
COc1cc2sc3cc(NCc4ccc(C)o4)ccc3c(=O)c2cc1OC,–,"inconclusive: 5.17 µM [activator, single point]"
COc1ccccc1C(=O)C1CCCN(Cc2cccc3nccnc23)C1 (stereo not drawn),inactive: 14.4%,–
NC(=O)c1ccc(NC(=O)COC(=O)c2c3c(nc4ccccc24)/C(=C\c2cccs2)CCC3)cc1,–,active: 7.31 µM
O=C(NC1CCCC1)c1cc(-c2ccc(Cl)cc2)on1,–,"inconclusive: 13 µM [activator, partial curve]"

# Quoted from the listing.
# Value of `COc1cc2sc3cc(NCc4ccc(C)o4)ccc3c(=O)c2cc1OC` under Potency: inconclusive: 5.17 µM [activator, single point]
# Value of `O=C(CSc1ncccc1-c1nc2ccccc2[nH]1)N1CCCCC1` under Potency: inconclusive: 23.1 µM [activator, partial curve, poor fit]
# Value of `COc1ccc(CNC(=O)C2CCN(S(=O)(=O)c3ccc(SC)cc3)CC2)cc1` under Potency: inconclusive: 5.17 µM [inhibitor, single point]
# Value of `C=CCN(C(=O)C1CSC2(C)CCC(=O)N12)c1nc(-c2ccccc2)cs1` (stereo not drawn) under Potency: inconclusive: 4.11 µM [inhibitor, single point]

# (cont.)

SMILES,"activity change, negative = inhibition",Potency
Cn1c(O)c(N=NC(=O)C2COc3ccccc3O2)c2ccccc21 (stereo not drawn),inactive: -2.55%,–
Cc1ccc(NC(=O)NC2CCCCCCC2)cc1C,–,"inconclusive: 2.59 µM [activator, partial curve]"
CCn1cnc2c(Nc3cccc(Cl)c3)nc(C#N)nc21,–,"inconclusive: 4.11 µM [activator, partial curve]"
COC(=O)C1=C(CS(=O)(=O)c2ccc(Cl)cc2)NC(=O)NC1c1ccc(O)cc1 (stereo not drawn),inactive: 11.3%,–
O=C(N/N=C/c1ccc([N+](=O)[O-])o1)C1CCCC1,–,"inconclusive: 23.1 µM [inhibitor, partial curve, poor fit]"
CC(=O)N1CCN(c2ccc(NCc3ccc4c(c3)OCO4)cc2)CC1,–,"inconclusive: 18.4 µM [inhibitor, partial curve, poor fit]"
Cc1c(C(N)=O)sc2ncn(CC(=O)NCCc3ccccc3)c(=O)c12,inactive: 7.94%,–
Cc1cnccc1CN(C)Cc1cn(C)nc1-c1ccc(Oc2ccccc2)cc1,–,"inconclusive: 18.3 µM [inhibitor, single point]"
COc1ccccc1C(=O)Nn1c(-c2cccs2)nc2ccccc2c1=O,–,"inconclusive: 16.4 µM [inhibitor, single point]"
COc1ccc(CNC(=O)c2ccc(C(C)(C)C)cc2)cc1,–,"inconclusive: 20.6 µM [activator, partial curve]"
Cc1ccc(C(=O)N2CCN(Cc3nc4sc5c(c4c(=O)[nH]3)CCCC5)CC2)cc1,inactive: -6.96%,–
C[n+]1c(/C=C/c2ccc3c(c2)OCO3)ccc2ccccc21,–,"inconclusive: 10.3 µM [activator, partial curve]"
CCOC(=O)N1CCN(CC(O)COc2ccccc2C(C)C)CC1 (stereo not drawn),inactive: 6.6%,–
COc1cccc(CN2CCCC(CNC(=O)c3ccc(F)cc3)C2)c1OC (stereo not drawn),inactive: 5.69%,–
CC(NC(=O)CCSc1nc(-c2ccc3c(c2)OCO3)cc(C(F)(F)F)n1)c1ccccc1 (stereo not drawn),–,"inconclusive: 25.9 µM [inhibitor, single point]"
c1ccc(-n2cnc3cc(NCc4ccccn4)ccc32)cc1,–,"inconclusive: 16.4 µM [activator, partial curve]"
O=C(COC(=O)c1ccc(O)cc1O)N=c1sccn1Cc1ccccc1Cl,–,"inconclusive: 20.6 µM [inhibitor, single point]"
O=C(N/N=C/c1cn(-c2cccs2)nc1-c1ccccc1)c1ccccc1Br,–,"inconclusive: 29.1 µM [inhibitor, single point]"
O=C(Nc1cccc(S(=O)(=O)N2CCOCC2)c1)C12CC3CC(CC(C3)C1)C2,–,"inconclusive: 20.6 µM [inhibitor, single point]"
CCN(Cc1ccccc1)C(=O)c1nn(-c2ccc(OC)cc2)c(=O)c2c1c1ccccc1n2C,–,active: 18.3 µM
CC(=O)N1CCN(CC(=O)Nc2c(Cl)ccc(C)c2Cl)CC1,inactive: -8.84%,–
COc1cccc(CN2CCCC(C(=O)Nc3ccc(-c4cscn4)cc3)C2)c1 (stereo not drawn),–,"inconclusive: 29.1 µM [inhibitor, single point]"
CCNC(=S)N1CCN(c2ncccn2)CC1,inactive: -1.72%,–
CCCCNC(=O)c1cccc(C(=O)NCCCC)c1,–,"inconclusive: 23.1 µM [inhibitor, single point]"
O=C(CSc1nnnn1C1CCCC1)NCc1ccccc1,–,"inconclusive: 28.2 µM [activator, single point]"

SMILES,"activity change, negative = inhibition",Potency
Cc1cc(C)c(S(=O)(=O)/N=C2/C=C(SCC(=O)O)C(=O)c3ccccc32)cc1C,–,"inconclusive: 23.1 µM [inhibitor, single point]"
COc1ccc(/C=N/Nc2nc(Nc3ccccc3)nc(N3CCCC3)n2)cc1,–,"inconclusive: 29.1 µM [inhibitor, single point]"
CC(=O)Nc1ccc(C(=O)CSc2nccc(=O)[nH]2)cc1,inactive: 4.96%,–
O=c1c2ccccc2nc(-c2ccc(Cl)c(Cl)c2)n1O,inactive: -19.5%,–
COc1ccc(NC(=O)C2CCN(C(=O)Cc3ccccc3)CC2)c(OC)c1,inactive: 15.6%,–
COc1cc(NC(=O)Cc2cccs2)c(C(=O)O)cc1OC,inactive: -4.23%,–
COC(=O)C(NC(=O)CCc1c(C)nc2c(c(C)nn2-c2ccccc2)c1C)C(C)C (stereo not drawn),inactive: -12.1%,–
COc1cccc(NC(=O)c2cccc(OC)c2OC)c1,–,"inconclusive: 14.1 µM [activator, partial curve]"
Cc1ccnc(NS(=O)(=O)c2ccc(NS(=O)(=O)c3cc(Cl)ccc3Cl)cc2)n1,–,"inconclusive: 32.6 µM [activator, partial curve, poor fit]"
C=CCN(CC=C)S(=O)(=O)c1ccc(NC(=S)NC(=O)/C=C/c2ccccc2)cc1,–,"inconclusive: 29.1 µM [activator, partial curve, poor fit]"
Cn1c(=O)c2c(nc(SCC(=O)OCc3ccccc3)n2C)n(C)c1=O,–,"inconclusive: 16.4 µM [activator, partial curve, poor fit]"
O=C(COC(=O)c1cc(-c2ccc(Cl)s2)nc2ccccc12)NCc1ccco1,inactive: -2.52%,–
CCOc1ccccc1N1CCN(C(=O)c2ccccc2OCc2c(C)noc2C)CC1,inactive: -0.54%,–
COCC(C)NC(=O)CCSc1nc(-c2ccc(OC)cc2)cc(C(F)(F)F)n1 (stereo not drawn),–,"inconclusive: 20.6 µM [inhibitor, single point]"
O=C(CCN1C(=O)c2ccccc2C1=O)Nc1cccc(O)c1,inactive: -4.49%,–
CC(C)Cc1csc(NC(=O)c2ccc(Br)cc2)c1C(=O)O,inactive: 7.59%,–
COc1cccc(CN(Cc2cccnc2)S(=O)(=O)c2ccc(-n3cnnn3)c(C)c2)c1,–,"inconclusive: 18.4 µM [inhibitor, single point]"
O=C(NC(=S)Nc1ccc(N2CCCCC2)cc1)c1ccco1,–,"inconclusive: 7.08 µM [activator, partial curve, poor fit]"
Cc1ccc(C)c(N2CCN(CCCNC(=O)Cn3cc4c(n3)CCCCC4)CC2)c1,–,"inconclusive: 29.1 µM [inhibitor, single point]"
CC1CCCCC1NC(=O)CN1c2cccc3cccc(c23)S1(=O)=O (stereo not drawn),inactive: -12.8%,–
Cc1ccccc1CS(=O)(=O)CCC(=O)NCCN1CCN(c2cccc(Cl)c2)CC1,inactive: -28.7%,–
O=C(NNC(=O)C1CC(c2cccs2)=NO1)Nc1ccc(Cl)cc1 (stereo not drawn),inactive: 3.56%,–
O=C(Oc1ccc(Cl)c2cccnc12)c1cccc([N+](=O)[O-])c1,–,"inconclusive: 18.4 µM [inhibitor, partial curve, poor fit]"
